# Data: article doi:10.1101/2025.08.11.669663
# The chains behind the UniProt entries cited, without tags or fusion partners.
# UniProt P00441: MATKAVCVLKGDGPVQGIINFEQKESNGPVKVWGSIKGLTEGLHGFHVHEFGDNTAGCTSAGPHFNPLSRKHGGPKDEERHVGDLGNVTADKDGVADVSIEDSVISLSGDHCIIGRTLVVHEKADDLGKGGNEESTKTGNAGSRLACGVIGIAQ
# UniProt P49736: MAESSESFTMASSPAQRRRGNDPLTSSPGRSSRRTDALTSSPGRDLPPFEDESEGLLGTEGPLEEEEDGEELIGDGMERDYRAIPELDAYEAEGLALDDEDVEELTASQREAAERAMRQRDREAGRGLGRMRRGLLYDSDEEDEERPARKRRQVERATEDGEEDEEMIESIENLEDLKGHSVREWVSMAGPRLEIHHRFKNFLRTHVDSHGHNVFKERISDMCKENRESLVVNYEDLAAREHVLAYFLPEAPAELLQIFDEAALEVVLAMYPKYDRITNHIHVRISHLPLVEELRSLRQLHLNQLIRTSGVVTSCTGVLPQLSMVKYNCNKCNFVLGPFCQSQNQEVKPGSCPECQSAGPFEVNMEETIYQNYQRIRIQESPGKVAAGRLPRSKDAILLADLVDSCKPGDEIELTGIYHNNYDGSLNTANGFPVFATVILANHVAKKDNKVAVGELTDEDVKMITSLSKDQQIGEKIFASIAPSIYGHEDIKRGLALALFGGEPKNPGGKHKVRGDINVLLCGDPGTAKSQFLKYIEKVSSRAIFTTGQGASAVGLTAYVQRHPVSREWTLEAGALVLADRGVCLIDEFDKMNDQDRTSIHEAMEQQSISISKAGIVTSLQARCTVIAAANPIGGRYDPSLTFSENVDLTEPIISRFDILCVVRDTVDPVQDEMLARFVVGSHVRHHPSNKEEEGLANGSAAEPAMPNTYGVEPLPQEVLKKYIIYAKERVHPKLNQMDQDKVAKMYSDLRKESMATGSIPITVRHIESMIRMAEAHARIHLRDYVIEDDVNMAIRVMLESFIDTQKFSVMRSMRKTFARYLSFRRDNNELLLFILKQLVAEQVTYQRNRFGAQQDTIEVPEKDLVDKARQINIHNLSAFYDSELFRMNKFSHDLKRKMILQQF
# UniProt P52701: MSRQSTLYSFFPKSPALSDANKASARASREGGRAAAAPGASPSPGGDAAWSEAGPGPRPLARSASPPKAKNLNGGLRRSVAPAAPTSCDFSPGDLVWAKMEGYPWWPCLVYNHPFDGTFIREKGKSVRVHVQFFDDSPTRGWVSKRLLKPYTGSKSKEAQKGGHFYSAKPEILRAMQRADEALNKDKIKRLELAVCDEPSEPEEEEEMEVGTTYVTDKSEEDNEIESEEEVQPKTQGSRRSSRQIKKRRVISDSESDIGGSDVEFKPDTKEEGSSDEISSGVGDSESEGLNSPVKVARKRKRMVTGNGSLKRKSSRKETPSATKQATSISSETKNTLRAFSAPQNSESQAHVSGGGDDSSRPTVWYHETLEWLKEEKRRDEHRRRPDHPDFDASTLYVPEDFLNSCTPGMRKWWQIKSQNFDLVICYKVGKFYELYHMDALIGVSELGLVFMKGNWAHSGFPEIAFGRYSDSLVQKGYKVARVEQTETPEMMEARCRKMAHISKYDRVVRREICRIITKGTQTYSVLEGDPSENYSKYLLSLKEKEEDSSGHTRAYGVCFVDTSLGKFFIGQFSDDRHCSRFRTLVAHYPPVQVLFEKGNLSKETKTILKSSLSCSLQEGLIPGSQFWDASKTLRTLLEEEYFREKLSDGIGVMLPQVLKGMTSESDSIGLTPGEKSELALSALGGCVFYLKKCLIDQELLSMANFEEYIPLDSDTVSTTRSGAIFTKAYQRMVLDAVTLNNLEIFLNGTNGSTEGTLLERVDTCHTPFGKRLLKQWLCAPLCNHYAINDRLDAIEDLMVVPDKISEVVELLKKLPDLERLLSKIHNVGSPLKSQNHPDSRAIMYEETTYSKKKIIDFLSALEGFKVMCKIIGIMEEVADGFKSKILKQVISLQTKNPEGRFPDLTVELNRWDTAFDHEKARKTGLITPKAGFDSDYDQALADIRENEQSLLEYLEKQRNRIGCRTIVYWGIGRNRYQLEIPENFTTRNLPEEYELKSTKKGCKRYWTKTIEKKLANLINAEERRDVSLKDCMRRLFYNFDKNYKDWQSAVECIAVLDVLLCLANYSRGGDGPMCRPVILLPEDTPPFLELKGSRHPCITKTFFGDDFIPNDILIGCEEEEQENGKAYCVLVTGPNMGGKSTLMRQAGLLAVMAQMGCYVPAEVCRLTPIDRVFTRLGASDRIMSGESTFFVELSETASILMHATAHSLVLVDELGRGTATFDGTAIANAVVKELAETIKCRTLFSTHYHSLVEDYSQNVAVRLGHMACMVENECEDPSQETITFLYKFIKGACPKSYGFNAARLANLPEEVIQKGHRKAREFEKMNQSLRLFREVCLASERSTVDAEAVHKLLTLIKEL
# UniProt P12004: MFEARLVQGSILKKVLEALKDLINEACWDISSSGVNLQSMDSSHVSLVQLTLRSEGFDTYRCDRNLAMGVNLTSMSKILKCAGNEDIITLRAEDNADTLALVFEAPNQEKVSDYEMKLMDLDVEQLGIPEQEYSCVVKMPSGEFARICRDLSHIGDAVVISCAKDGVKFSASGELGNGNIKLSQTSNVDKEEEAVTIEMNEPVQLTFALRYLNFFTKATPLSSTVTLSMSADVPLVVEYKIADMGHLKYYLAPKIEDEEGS
# UniProt P28340: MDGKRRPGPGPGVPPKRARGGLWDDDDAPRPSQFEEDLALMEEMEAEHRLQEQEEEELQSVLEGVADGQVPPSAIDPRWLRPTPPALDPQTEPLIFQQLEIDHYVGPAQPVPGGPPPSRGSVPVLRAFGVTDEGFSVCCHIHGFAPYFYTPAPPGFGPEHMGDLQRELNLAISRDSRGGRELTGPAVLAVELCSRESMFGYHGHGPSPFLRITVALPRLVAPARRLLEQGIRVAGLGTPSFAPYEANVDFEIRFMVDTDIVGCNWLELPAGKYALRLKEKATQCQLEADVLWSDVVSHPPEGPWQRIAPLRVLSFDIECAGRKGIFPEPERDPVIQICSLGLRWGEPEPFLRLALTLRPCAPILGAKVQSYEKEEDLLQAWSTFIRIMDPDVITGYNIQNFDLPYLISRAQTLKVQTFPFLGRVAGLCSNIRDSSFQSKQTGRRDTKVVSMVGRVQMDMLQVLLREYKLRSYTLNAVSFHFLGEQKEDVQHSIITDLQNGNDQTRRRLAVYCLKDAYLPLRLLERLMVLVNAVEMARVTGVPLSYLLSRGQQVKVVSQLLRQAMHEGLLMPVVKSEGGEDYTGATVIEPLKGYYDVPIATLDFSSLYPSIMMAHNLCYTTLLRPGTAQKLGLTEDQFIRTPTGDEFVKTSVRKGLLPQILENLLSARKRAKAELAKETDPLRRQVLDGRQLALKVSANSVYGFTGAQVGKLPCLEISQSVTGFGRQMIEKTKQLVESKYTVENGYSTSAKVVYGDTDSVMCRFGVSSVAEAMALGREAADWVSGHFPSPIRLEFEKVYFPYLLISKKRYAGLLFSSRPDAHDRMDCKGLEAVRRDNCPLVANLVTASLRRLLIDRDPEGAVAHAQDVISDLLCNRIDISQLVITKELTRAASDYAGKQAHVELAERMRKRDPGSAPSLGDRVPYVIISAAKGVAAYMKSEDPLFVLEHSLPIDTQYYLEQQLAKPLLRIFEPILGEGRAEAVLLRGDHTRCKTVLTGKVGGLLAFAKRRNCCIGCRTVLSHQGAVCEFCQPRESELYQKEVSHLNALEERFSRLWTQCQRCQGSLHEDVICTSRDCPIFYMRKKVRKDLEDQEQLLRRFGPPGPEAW
# These are yes or no findings as the source states them, for the method shown. Binding seen in cells or lysates may run through a third protein. Some entries that bind do so weakly or less than the wild type.
# Legend:
# Assay in all cases: proximity ligation
# [1] = target: Cu/Zn superoxide dismutase (SOD1) (human (endogenous in HeLa)) (UniProt P00441)
# [2] = target: T1, catalase (CAT) (human (endogenous in HeLa)) (UniProt P04040)
# T1 sequence: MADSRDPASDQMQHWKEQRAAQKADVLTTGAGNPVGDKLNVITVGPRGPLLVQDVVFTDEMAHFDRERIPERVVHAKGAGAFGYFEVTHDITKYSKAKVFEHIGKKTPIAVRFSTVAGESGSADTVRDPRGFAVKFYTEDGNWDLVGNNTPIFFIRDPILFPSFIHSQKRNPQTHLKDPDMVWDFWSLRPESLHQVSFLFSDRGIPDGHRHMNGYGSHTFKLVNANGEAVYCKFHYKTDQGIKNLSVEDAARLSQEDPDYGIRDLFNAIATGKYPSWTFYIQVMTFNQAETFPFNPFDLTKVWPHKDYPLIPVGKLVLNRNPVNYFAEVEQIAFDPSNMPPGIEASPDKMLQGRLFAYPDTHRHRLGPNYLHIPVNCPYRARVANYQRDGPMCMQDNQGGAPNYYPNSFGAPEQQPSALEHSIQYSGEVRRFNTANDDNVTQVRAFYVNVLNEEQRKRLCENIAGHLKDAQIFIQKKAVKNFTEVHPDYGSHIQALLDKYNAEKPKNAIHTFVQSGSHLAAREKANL
# [3] = target: T2, peroxiredoxin 2 (PRDX2) (human (endogenous in HeLa)) (UniProt P32119)
# T2 sequence: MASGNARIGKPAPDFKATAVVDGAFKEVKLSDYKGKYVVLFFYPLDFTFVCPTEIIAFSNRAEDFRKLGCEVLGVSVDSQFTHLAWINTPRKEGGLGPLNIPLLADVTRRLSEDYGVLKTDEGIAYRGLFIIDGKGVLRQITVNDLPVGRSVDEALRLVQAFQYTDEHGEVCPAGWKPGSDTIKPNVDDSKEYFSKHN
binding [1],binding [2],binding [3],Substance
binds,,,MCM2 (from UniProt P49736 1-904)
binds,binds,binds,MSH6 (from UniProt P52701 1-1360)
binds,binds,,PCNA (from UniProt P12004 1-261)
binds,binds,binds,POLD1 (a DNA polymerase subunit) (from UniProt P28340 1-1107)
